Results are given in words; binding and its absence hold for the method and conditions named. In cells and extracts the contact can be indirect. Some binding calls cover weakened binding; strength is not graded here.

Consider 1 molecule from paper PMC7099619.

The target in this experiment is T1, receptor activator of nuclear factor-kB (RANK) (mouse (endogenous in RAW264.7)) (UniProt O35305).
T1 sequence: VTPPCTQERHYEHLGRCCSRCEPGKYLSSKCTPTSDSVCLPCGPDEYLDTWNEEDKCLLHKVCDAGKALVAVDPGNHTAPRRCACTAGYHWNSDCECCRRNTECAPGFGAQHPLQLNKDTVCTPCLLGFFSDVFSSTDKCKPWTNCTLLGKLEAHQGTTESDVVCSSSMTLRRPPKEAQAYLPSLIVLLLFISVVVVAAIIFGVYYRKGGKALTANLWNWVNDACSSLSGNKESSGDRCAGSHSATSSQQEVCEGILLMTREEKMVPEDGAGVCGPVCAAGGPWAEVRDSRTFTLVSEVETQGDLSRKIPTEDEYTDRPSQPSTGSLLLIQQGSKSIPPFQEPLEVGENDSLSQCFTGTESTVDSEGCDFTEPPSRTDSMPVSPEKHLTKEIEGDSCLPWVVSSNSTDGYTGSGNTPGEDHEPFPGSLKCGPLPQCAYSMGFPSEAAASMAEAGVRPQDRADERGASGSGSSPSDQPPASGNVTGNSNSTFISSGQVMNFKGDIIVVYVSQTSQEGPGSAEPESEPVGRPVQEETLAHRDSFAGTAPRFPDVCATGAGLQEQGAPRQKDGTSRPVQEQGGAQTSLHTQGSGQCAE
Kind of experiment: co-IP; RAW264.7 cells treated with vehicle or muscone (40 μM), with or without RANKL; TRAF6 detected by Western blot, Input: TRAF6 and IB: RANK as loading controls.

B1: TNF receptor-associated factor 6 (protein, UniProt P70196 1-530)
chain: MSLLNCENSCGSSQSSSDCCAAMAASCSAAVKDDSVSGSASTGNLSSSFMEEIQGYDVEFDPPLESKYECPICLMALREAVQTPCGHRFCKACIIKSIRDAGHKCPVDNEILLENQLFPDNFAKREILSLTVKCPNKGCLQKMELRHLEDHQVHCEFALVNCPQCQRPFQKCQVNTHIIEDCPRRQVSCVNCAVSMAYEEKEIHDQSCPLANIICEYCGTILIREQMPNHYDLDCPTAPIPCTFSVFGCHEKMQRNHLARHLQENTQLHMRLLAQAVHNVNLALRPCDAASPSRGCRPEDPNYEETIKQLESRLVRQDHQIRELTAKMETQSMYVGELKRTIRTLEDKVAEMEAQQCNGIYIWKIGNFGMHLKSQEEERPVVIHSPGFYTGRPGYKLCMRLHLQLPTAQRCANYISLFVHTMQGEYDSHLPWPFQGTIRLTILDQSEALIRQNHEEVMDAKPELLAFQRPTIPRNPKGFGYVTFMHLEALRQGTFIKDDTLLVRCEVSTRFDMGGLRKEGFQPRSTDAGV
Take B1: the binding result is “binds”.
